Data: PubChem BioAssay AID1347076 (National Center for Advancing Translational Sciences (NCATS), 2019)
The whole screen tested about 400,000 compounds, of which about 13,000 (3.2%) were called active. The inconclusive results got no clear call from the source; some entries with a clear call stand among them for comparison. The call rests on the fitted dose curve; in most records, active means well fitted cell-killing curve with a large enough effect; inconclusive means small, poorly fitted or top-dose-only effect, or effect the other way; inactive means flat fitted curve, though single readings scatter. Potencies beside an inconclusive call are fits to weak or partial responses and may not hold up.

Experiment: qHTS assay for MDR1-selective chemotherapeutics: Primary screen using the drug-selected MDR subline cells KB-V1; further: nearly all actives have a fitted effect of over 60% in size
Details: KB-V1 MDR cells viability, CellTiter-Glo, 72 h; activity change, negative = cytotoxicity: at 46.1 µM (top of the series)
Summary of the method: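 Cells of the MDR subline KB-V1 are plated, dosed with compound at multiple concentrations, and incubated 72 h at 37 degrees C; CellTiter-Glo is then added and luminescence read after 10 min.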
On the % scale 0 is the no-effect control and ±100 the full control effect; potency means the concentration at half of the fitted maximal effect.

| SMILES | Potency | activity change, negative = cytotoxicity |
| --- | --- | --- |
| COc1ccc(CN2CCC(C)(Oc3ccc4c(c3)OCO4)C2)c2ccccc12 (centres undefined) | inconclusive: 18.4 µM [cytotoxic, partial curve] |  |
| COc1cc2c(cc1OC)N1C(=O)CC(OCC(=O)O)C3C4CC5(CCN5C(=O)C4=O)C2C31 (centres undefined) |  | inactive: 9.67% |
| CC1C(=O)N(Cc2cn(CCC3OCCO3)nn2)CCS(=O)(=O)N1Cc1ccc(-c2ccc(Cl)c(Cl)c2)cc1 (centres undefined) | inconclusive: 18.4 µM [cytotoxic, single point] |  |
| Cc1nc2cc(C(=O)O)ccc2n1-c1ccc(C(C)C)cc1 |  | inactive: 8.81% |
| CC(=NNC(=O)COc1cccc(C)c1)c1cccnc1 | active: 16.4 µM |  |
| COc1ccccc1NC(=O)CN(Cc1ccco1)C(=O)c1cccs1 | inconclusive: 15.8 µM [cytotoxic, single point] |  |
| COc1ccccc1NS(=O)(=O)c1cc(NC(=O)CN2C(=O)NC3(CCCCC3)C2=O)ccc1C | inconclusive: 25.9 µM [rising, single point] |  |
| CC(=O)Nc1nonc1-c1nc2ccccc2n1CCC(C)C | inconclusive: 16.4 µM [cytotoxic, single point] |  |
| O=C1c2ccccc2C(=O)c2c(/C=C/N3CCCCC3)ccnc21 | active: 2.31 µM |  |
| CCC(=O)n1nc(-c2ccccc2)nc1SCC(=O)Nc1ccc(C)cc1 | active: 20.6 µM |  |
| Cn1c(-n2c(-c3ccco3)nc3ccccc3c2=O)nc2ccccc21 | inconclusive: 16.4 µM [cytotoxic, partial curve, poor fit] |  |
| O=C(OCC(=O)N1CCN(C(=O)c2ccco2)CC1)c1cc(-c2ccco2)nc2ccccc12 | inconclusive: 5.8 µM [cytotoxic, partial curve] |  |
| Cc1sc2ncnc(SCC(=O)N3CCCC3=O)c2c1C | inconclusive: 18.4 µM [cytotoxic, single point] |  |
| COC(=O)CCCC(=O)NC1CCCN(C2Cc3ccccc3C2)C1 (centres undefined) |  | inactive: -1.25% |
| Cc1cccc(NC(=O)c2ccc(NCC3CCCO3)c([N+](=O)[O-])c2)c1 (centres undefined) | active: 4.11 µM |  |
| CCOc1cc(/C=N/NC(=O)C(=O)N2CCCC2)ccc1O | inconclusive: 23.1 µM [rising, partial curve] |  |
| COc1ccc(N2CCN(C(=O)CSc3nnc(C4CC4)n3C3CC3)CC2)cc1 | inconclusive: 23.1 µM [cytotoxic, partial curve] |  |
| COc1ccc(C(=O)NCC(=O)N2CCC(Cc3ccccc3)CC2)cc1OC | inconclusive: 8.2 µM [cytotoxic, partial curve] |  |
| CC(C)=CCC/C(C)=C/CNC(=O)CC1C[C@H](C(=O)N(C(C)C)C(C)C)[C@@]2(C)c3[nH]c4ccccc4c3CCN2C1=O (some centres undefined) |  | inactive: -1.13% |
| O=C(CCN1CCN(c2ccccc2)CC1)Nc1nccs1 |  | inactive: -2.08% |
| O=C(NC1CCN(Cc2ccccc2)CC1)C1CCCN(S(=O)(=O)c2cccc3nonc23)C1 (centres undefined) |  | inconclusive: -22% |
| CCN(CC)CCn1c2ccccc2c2cnc(N=CN(C)C)c(C#N)c21 | inconclusive: 32.6 µM [cytotoxic, partial curve, poor fit] |  |

| SMILES | Potency | activity change, negative = cytotoxicity |
| --- | --- | --- |
| COC(=O)c1ccc(/C=N\N2CCN(Cc3ccc(C)cc3)CC2)cc1 | active: 8.2 µM |  |
| N#Cc1cccc(C(Br)S(=O)(=O)c2ccccc2)c1 (centres undefined) |  | inactive: 1.63% |
| COc1ccc(C(=O)NCC(C)NC(=O)c2ccc(OC)c(OC)c2)cc1OC (centres undefined) | inconclusive: 0.92 µM [cytotoxic, full curve] |  |
| CCc1ccc(C(=O)COC(=O)c2cc([N+](=O)[O-])ccc2N2CCOCC2)cc1 | active: 6.51 µM |  |
| Fc1ccccc1Cn1cc(C(=S)N2CCOCC2)c2ccccc21 | inconclusive: 14.6 µM [cytotoxic, partial curve] |  |
| CCC(C)NC(=O)C1CCCCN1S(=O)(=O)c1ccc(F)cc1 (centres undefined) | inconclusive: 16.4 µM [cytotoxic, partial curve] |  |
| FC(F)Sc1ccc(N=C2NN=C(c3ccc4c(c3)OCCO4)CS2)cc1 | inconclusive: 35.5 µM [cytotoxic, single point] |  |
| Cc1ccc(NC(=O)c2cc(S(=O)(=O)NC3CCCCCC3)ccc2F)cc1F | inconclusive: 29.1 µM [cytotoxic, single point] |  |
| COC(=O)/C=C/c1ccc2c(c1)S(=O)(=O)N(C1CCCC1)[C@H]2CC(=O)OC | inconclusive: 20.6 µM [cytotoxic, single point] |  |
| CC[n+]1c(/C=C/C=C/N(C(C)=O)c2ccccc2)sc2cc(OC)ccc21 | active: 13 µM |  |
| Cc1cc(C)c2c(N)c(C(=O)Nc3cccc(C)c3C)sc2n1 | active: 6.51 µM |  |
| O=C(NCCCn1ccnc1)/C(=C/c1ccco1)NC(=O)c1ccco1 | inconclusive: 29.1 µM [rising, single point] |  |
| COc1ccc(CNC(=O)CN(Cc2ccc(F)cc2)C(=O)CCC(=O)Nc2nccs2)cc1 | inconclusive: 20.6 µM [rising, single point] |  |
| COc1cccc(CNC(=O)CCNS(=O)(=O)c2ccc(C)cc2)c1 |  | inactive: -0.738% |
| CC(=O)Nc1ccc(Sc2ccccc2C(=O)Nc2ccc(F)cc2)cn1 | inconclusive: 25.9 µM [cytotoxic, single point] |  |
| COc1ccc2[nH]cc(CCN=C(NC(=O)c3cccc(Cl)c3)Nc3nc(C)cc(C)n3)c2c1 | inconclusive: 11.6 µM [cytotoxic, partial curve] |  |
| CCOc1ccc(C(=O)NC(=S)Nc2ccc(N3CCOCC3)c(Cl)c2)cc1[N+](=O)[O-] | inconclusive: 7.31 µM [cytotoxic, partial curve, poor fit] |  |
| C=C1C(=O)C=C[C@]2(C)C[C@@H]3OC(=O)[C@](C)(O)[C@H]3C[C@@H]12 | inconclusive: 29.1 µM [cytotoxic, partial curve, poor fit] |  |
| Cn1c(SCC(=O)Nc2nccs2)nnc1C12CC3CC(CC(C3)C1)C2 | active: 20.6 µM |  |
| CCC(C)Nc1nc(-c2cccc(OC)c2O)nc2ccccc12 (centres undefined) | inconclusive: 13 µM [cytotoxic, partial curve, poor fit] |  |
| CCNC(=O)C1CCN(c2nc3ccccc3nc2C(F)(F)F)CC1 |  | inactive: -25.8% |
| COc1ccc(CCNC(=O)c2ccc(Cl)c(S(=O)(=O)N3CCCC3)c2)cc1 |  | inactive: -6.41% |

Part of the list above, reformatted.
SMILES	Potency	activity change, negative = cytotoxicity
O=C(NCCCn1ccnc1)/C(=C/c1ccco1)NC(=O)c1ccco1	inconclusive: 29.1 µM [rising, single point]	
COc1ccc(CNC(=O)CN(Cc2ccc(F)cc2)C(=O)CCC(=O)Nc2nccs2)cc1	inconclusive: 20.6 µM [rising, single point]	
COc1cccc(CNC(=O)CCNS(=O)(=O)c2ccc(C)cc2)c1		inactive: -0.738%
CC(=O)Nc1ccc(Sc2ccccc2C(=O)Nc2ccc(F)cc2)cn1	inconclusive: 25.9 µM [cytotoxic, single point]	
